Source: PubChem BioAssay AID2685 (National Center for Advancing Translational Sciences (NCATS), 2010)
In all, about 320,000 compounds went through this assay and about 2,100 (0.66%) were called active. The shares of active, inactive and inconclusive entries below differ from those in the screen. The call rests on the fitted dose curve; in most records, active means well fitted inhibition curve with a large enough effect in the signal ratio, with a control signal flat (not every such curve was filed as active); inconclusive means small, poorly fitted or top-dose-only effect, or effect the other way, or a change in a side signal; inactive means flat fitted curve, though single readings scatter; the % refers to the signal ratio. Where the call is inconclusive, the potency comes from a doubtful curve fit. Where a SMILES comes first, the peptide text is derived from it. [ ]: non-standard residue; d: D form. The star is where a group is joined. Tos = Cc1ccc(S(=O)(=O)*)cc1

Test: qHTS Assay for Lipid Storage Modulators in Drosophila S3 Cells
Conditions: BODIPY lipid droplet fluorescence, 18-24 h, cells fed with added oleic acid; lipid storage change, negative = inhibition: at 46.1 µM (top of the series) unless noted
In short: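 Drosophila S3 cells got compounds at several concentrations plus oleic acid (400 uM solution). Laser-scanning cytometry with 488 nm excitation read lipid droplets at 500-530 nm and cells at 575-640 nm. Percent activity was relative to 20 uM Triacsin C.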
On the % scale 0 is the no-effect control and ±100 the full control effect; potency means the concentration at half of the fitted maximal effect.

SMILES	Potency	lipid storage change, negative = inhibition
Cc1ccc(S(=O)(=O)NCc2nc3nc(C)cc(C)n3n2)c(C)c1	inconclusive: 6.51 µM [falling, partial curve, poor fit]	
O=C(NC1CC1)C1=C[C@H](c2ccc(Br)cc2)C[C@H](OCc2ccc(CO)cc2)O1		inconclusive: 13.6%
CCC(=O)Nc1cccc(NC(=S)NC(=O)c2cccs2)c1	inconclusive: 3.66 µM [activator, partial curve]	
CC(NC(=O)COc1ccccc1)C(=O)N1CCN(c2ccccc2)CC1 (stereo unspecified)		inconclusive: 20.5%
COc1ccccc1N(C)S(=O)(=O)c1ccc(C(=O)N(C)Cc2ccc(OC(F)F)cc2)cc1		inconclusive
CCOC(=O)C1(Cc2cccc(F)c2)CCN(Cc2cn(CC)nc2C)CC1		inconclusive: 12.6%
CCOc1ccc(N2CC(C(=O)NCCc3ccccc3)CC2=O)cc1 (stereo unspecified)		inconclusive: 45.1%
CNC(=S)N1CCC(n2cnc3ccccc32)CC1		inconclusive: -23.4%
COc1cc(C(=O)NC(=S)Nc2nccs2)cc(OC)c1OC	inconclusive: 0.58 µM [rising, partial curve]	
O=C(CCl)N1CCN(S(=O)(=O)c2ccc3ccccc3c2)CC1	inconclusive: 1.3 µM [falling, full curve, poor fit]	
CCNC(=O)c1c(N)sc2c1CCCCC2		inconclusive: -32.1%
O=C(CNc1ccccc1)N/N=C/c1cn(-c2ccccc2)nc1-c1ccccc1	inconclusive: 0.058 µM [activator, full curve, poor fit]	
COCCNC(=O)CCC(=O)NNc1nc2ccccc2c2nc(-c3ccccc3)nn12		inconclusive: -5.78%
CCOc1ccccc1OCCCNCc1ccccc1		inactive: 26.7%
Cc1ccc(C(=O)Nc2ccc3c(c2)OCCO3)c(Cl)c1		inconclusive: 30%
COc1cccc(CC(=O)N2CCCC(CO)(Cc3ccc(F)cc3F)C2)c1 (stereo unspecified)		inconclusive: -15.9%
Cc1cc(C(=O)Cn2nc(C(=O)O)c3ccccc3c2=O)c(C)n1-c1ccc(F)cc1		inconclusive: -65.6%
CN1C(=O)CC(N2CCN(C(=O)c3ccccc3)CC2)C1=O (stereo unspecified)		inconclusive: 1.74%
O=C(NCc1cccnc1)C(=O)Nc1ccc([N+](=O)[O-])cc1		inconclusive: 41.2%
O=C(N/N=C/c1ccccc1O)NC12CC3CC(CC(C3)C1)C2		inconclusive: 194%
CC1CCC2C(=O)N(c3ccc(S(=O)(=O)c4ccccc4)cc3)C(=O)C2C1 (stereo unspecified)		inconclusive: -1.01%
CCOC(=O)c1sc(NC(=O)CCN2CCN(CC)CC2)c(C(=O)OCC)c1C		inconclusive: 27.2%
Cc1ccc(S(=O)(=O)N[C@@H](Cc2ccccc2)C(=O)N2CCC[C@@H]2C(=O)O)cc1 (Tos-Phe-[dP]-OH)		inconclusive: -25.6%
COc1cccc(OCc2cc(C(=O)N3CCC(c4ccncc4)CC3)no2)c1	active: 4.11 µM	
COC(=O)/C=C/C(=O)N1CCN(c2ccccc2C)CC1		inconclusive: -30%
Nn1cnc2scc(-c3ccc(Cl)cc3)c2c1=O		inconclusive: -32.6%

SMILES	Potency	lipid storage change, negative = inhibition
CC(C)(CNC(=O)c1cccc(S(=O)(=O)NCc2ccccc2)c1)N1CCOCC1		inconclusive: -100%
CC1Cc2ccccc2N1C(=O)CNc1cccc(S(=O)(=O)N2CCCC2)c1 (stereo unspecified)		inconclusive: 28.4% [at 9.22 µM]
COc1ccc([N+](=O)[O-])cc1NC(=O)CSCc1ccccc1		inactive: 2.02%
CCCn1cc(SCC(N)=O)c2ccccc21		inconclusive: -14.4%
O=C(CNC(=O)c1ccccc1F)OCc1nc2ccc(Cl)cc2n1CCO		inconclusive: 24.5%
O=C(CCc1ccccc1)Nc1nnc(-c2cccs2)o1		inconclusive: 0.867%
O=C(CCN1C(=O)C2CC=CCC2C1=O)Nc1cc(C(F)(F)F)ccc1N1CCCC1 (stereo unspecified)	inconclusive: 6.51 µM [activator, single point]	
CC(C)c1nnc(NC(=O)C2CCN(c3cnccn3)CC2)s1		inconclusive: -11.9%
CC1CCC(NC(=O)C2CCN(C(=O)NC3CCCCC3)CC2)CC1 (stereo unspecified)		inconclusive: -33.6%
CCOC(=O)c1cc2c(OC)ccc(OC)c2n1CC(=O)c1ccccc1		inconclusive: -13.3%
CCCCn1nnc(N(C(=O)c2cccs2)C(=O)c2cccs2)n1		inconclusive: -30.4% [at 0.369 µM]
O=C(NCc1cccnc1)c1nnc(Cc2ccc(F)cc2)o1		inconclusive: 17.2% [at 9.22 µM]
Nc1nn(-c2ccccc2)c(N)c1N=Nc1ccccc1F		inconclusive: 15.2%
COc1ccc(N2C(=O)CC(N3CCN(S(=O)(=O)c4ccc(Cl)cc4)CC3)C2=O)cc1 (stereo unspecified)		inconclusive: 25.7%
COc1ccc(C(C)N2CC34C=CC(O3)C(C(=O)OCC(C)C)C4C2=O)cc1 (stereo unspecified)		inactive: 2.76%
CCC(Oc1ccccc1)C(=O)Nc1nnc(S(=O)(=O)Nc2ccccc2)s1 (stereo unspecified)		inconclusive: 25%
CCOCc1c(C(=O)NCc2ccccc2CN2CCCC2)oc2ccccc12		inconclusive: 36.3%
COc1ccc(NC(=O)c2ccc3c(c2)C(=O)N(CC2CCCO2)C3=O)cc1 (stereo unspecified)	inconclusive: 6.51 µM [activator, single point]	
CC(C)c1[nH]nc2c1C(Cc1ccccc1)C(C#N)=C(N)O2 (stereo unspecified)		inconclusive: 19.1%
COc1ccccc1S(=O)(=O)Nc1ccc(S(=O)(=O)Nc2nccs2)cc1		inconclusive: 10.4%
CCOc1ccccc1N(CC(=O)Nc1ccc(S(=O)(=O)N2CCOCC2)cc1)S(C)(=O)=O		inconclusive: 37%
Cc1cc(C)c(C#N)c(Nc2cccc(C)c2C)n1	inconclusive: 16.4 µM [falling, partial curve, poor fit]	
COc1cc(C(Nc2ccc(S(=O)(=O)NCC3CCCO3)cc2)C(=O)NC(C)(C)C)cc(OC)c1OC (stereo unspecified)	inconclusive: 29.1 µM [falling, single point]	
Nc1nnnn1/N=C/c1ccccc1OCc1ccccc1	inconclusive: 0.58 µM [activator, single point]	
NC(=O)c1ccc(C(=O)c2ccc([N+](=O)[O-])cc2)cc1	inconclusive: 6.51 µM [activator, partial curve]	

4 compounds from above, arranged by formula weight, low to high.
SMILES	Potency	lipid storage change, negative = inhibition
Nc1nnnn1/N=C/c1ccccc1OCc1ccccc1	inconclusive: 0.58 µM [activator, single point]	
O=C(NCc1cccnc1)c1nnc(Cc2ccc(F)cc2)o1		inconclusive: 17.2% [at 9.22 µM]
COc1ccc(N2C(=O)CC(N3CCN(S(=O)(=O)c4ccc(Cl)cc4)CC3)C2=O)cc1 (stereo unspecified)		inconclusive: 25.7%
CCOc1ccccc1N(CC(=O)Nc1ccc(S(=O)(=O)N2CCOCC2)cc1)S(C)(=O)=O		inconclusive: 37%
